# Earlier results as cited in US20080299556A2, “Alkylguanyltransferase Assays” (VION Pharmaceuticals, Inc., priority 2005, published 2008).
# At least one compound was matched to its structure with a doubt left.
# Target: T1, alkylguanyltransferase (AGT) (Homo sapiens, UniProt P16455)
# T1 sequence (P16455 1-207): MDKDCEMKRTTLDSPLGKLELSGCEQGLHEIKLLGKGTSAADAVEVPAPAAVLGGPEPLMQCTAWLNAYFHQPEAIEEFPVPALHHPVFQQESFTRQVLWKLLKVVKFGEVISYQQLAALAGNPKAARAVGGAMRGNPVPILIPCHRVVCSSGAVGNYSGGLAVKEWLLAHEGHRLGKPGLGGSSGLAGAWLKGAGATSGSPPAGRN
# Conditions: dose of 100 mg/kg; tumors having moderate AGT levels; for a prolonged time period
structure (smiles),measurement,value
"Cn1nnc2c(C(N)=O)ncn2c1=O [TMZ, temozolomide]",AGT activity in tumors,eliminates all of the AGT activity
